Earlier results in patent US20130190279A1, “DELAYED-RELEASE GLUCOCORTICOID TREATMENT OF RHEUMATOID ARTHRITIS BY IMPROVING SIGNS AND SYMPTOMS, SHOWING MAJOR OR COMPLETE CLINICAL RESPONSE AND BY PREVENTING FROM JOINT DAMAGE” (Horizon Pharma AG, priority 2009, published 2013).
Some of these results come from one statement about several compounds together.

Settings: in vivo

C[C@H]1C[C@@H]2[C@H]([C@@H](O)C[C@@]3(C)[C@H]2CC[C@]3(O)C(=O)CO)[C@@]2(C)C=CC(=O)C=C12 [methylprednisolone]
half-life: 3 to 4 h
